## Screening data, single-dose tests

The chains behind the UniProt entries cited, without tags or fusion partners. Residues count along the entry.
UniProt Q4DA54, 1-478: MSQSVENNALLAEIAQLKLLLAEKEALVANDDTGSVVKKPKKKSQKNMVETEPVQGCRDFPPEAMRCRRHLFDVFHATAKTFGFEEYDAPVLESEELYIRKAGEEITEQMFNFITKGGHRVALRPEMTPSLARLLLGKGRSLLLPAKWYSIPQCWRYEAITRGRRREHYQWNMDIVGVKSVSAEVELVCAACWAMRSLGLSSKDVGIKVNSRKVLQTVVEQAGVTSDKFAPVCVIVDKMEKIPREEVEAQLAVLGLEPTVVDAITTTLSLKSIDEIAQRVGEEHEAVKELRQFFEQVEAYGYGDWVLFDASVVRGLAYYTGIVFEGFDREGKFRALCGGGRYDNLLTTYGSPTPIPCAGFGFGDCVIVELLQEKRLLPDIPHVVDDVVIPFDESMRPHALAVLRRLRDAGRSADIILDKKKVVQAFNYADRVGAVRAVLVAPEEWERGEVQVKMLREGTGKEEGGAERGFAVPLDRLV
UniProt Q8IDJ8, 1-583: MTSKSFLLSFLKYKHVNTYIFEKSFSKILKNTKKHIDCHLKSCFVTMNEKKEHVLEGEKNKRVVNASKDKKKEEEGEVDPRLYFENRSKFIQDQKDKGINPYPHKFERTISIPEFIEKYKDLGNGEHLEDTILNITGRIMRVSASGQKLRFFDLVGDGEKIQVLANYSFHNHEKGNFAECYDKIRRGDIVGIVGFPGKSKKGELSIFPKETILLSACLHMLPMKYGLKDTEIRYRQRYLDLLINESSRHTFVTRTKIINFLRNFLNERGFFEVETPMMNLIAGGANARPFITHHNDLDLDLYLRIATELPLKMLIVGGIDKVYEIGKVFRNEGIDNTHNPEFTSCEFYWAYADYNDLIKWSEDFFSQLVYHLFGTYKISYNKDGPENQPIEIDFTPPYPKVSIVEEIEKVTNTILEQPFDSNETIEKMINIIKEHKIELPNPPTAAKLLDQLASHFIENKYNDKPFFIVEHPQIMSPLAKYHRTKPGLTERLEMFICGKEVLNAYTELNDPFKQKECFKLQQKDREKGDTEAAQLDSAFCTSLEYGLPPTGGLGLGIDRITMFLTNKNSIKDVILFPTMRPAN

Source: ChEMBL document CHEMBL3988442, “University of Dundee, Small-Polar-MMV Screening Library” (2021).

A: 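Histidine-tRNA ligase, Trypanosoma cruzi CL Brener (UniProt Q4DA54). Enzyme assay of histidyl-tRNA synthetase; the read-out is not stated. Tested at 30 µM. The record gives no direction; compounds that gave an IC50 in retests scored well above the rest, so higher reads as stronger inhibition. Size under these conditions: about 69,000 compounds, about 31 of them at 50% or above in at least one test.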
B: 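Lysine-tRNA ligase, Plasmodium falciparum 3D7 (UniProt Q8IDJ8). Enzyme assay of the cytosolic lysyl-tRNA synthetase in 384-well plates, read by luminescence. Concentration: 30 µM. Higher reads as stronger inhibition, judged from the few compounds that gave an IC50. Size under these conditions: about 69,000 compounds, about 49 of them at 50% or above in at least one test.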

Each number is a percent effect as filed. The record does not define 0% and 100%; most values in the screen are far below 50% and negative numbers occur (in some assays of this library far below -100). The compounds are a random part of those screened.

| # | SMILES | A | B |
|---|---|---|---|
| 1 | `COc1ccc(C(=O)N2C[C@@H](CN3CCCC3)[C@@H](CO)C2)c(C)c1` | -2.041% | 8.804% |
| 2 | `Cc1noc(C)c1CSc1nc(=O)ccn1C(C)C` | 3.704% | -0.4651% |
| 3 | `O=S(=O)(c1cccs1)N1CCCC2(COCCN(c3cccnc3)C2)C1` (stereo not given) | 14.71% | 2.575% |
| 4 | `CC(C)c1ccc(-n2ncc(C(=O)NCC3COC(C)(C)O3)c2N)cc1` (stereo not given) | 9.091% | 1.549% |
| 5 | `CC(C)n1nc2c(cc1=O)CN(c1ncnc3sccc13)CC2` | 11.67% | 12.09% |
| 6 | `c1csc(N2CCCN(c3ncnc4sccc34)CC2)n1` | 16.08% | 3.883% |
| 7 | `Cc1cccc(=O)n1CCCNc1nc(N(C)C)nc2c1CCNC2` | 34.39% | -10.5% |
| 8 | `Fc1cc(F)cc(CN2CCC(c3cc4ncccc4cn3)CC2)c1` | 4.615% | 2.15% |
| 9 | `COc1ccc(CNC(=O)N2CCOCC2C2CC2)c(C)c1` (stereo not given) | 3.191% | 2.846% |
| 10 | `O=C(c1ccncc1)N1CCCC1C1CCN(Cc2ccccc2)CC1` (stereo not given) | 2.941% | 4.772% |
| 11 | `Cc1cc(N2CCC3(CCC(=O)N(CC4CC4)C3)CC2)ncn1` | 2.326% | 1.212% |
| 12 | `Cc1nc(C)c(C(=O)N2CCc3nc4c(C)csc4c(=O)n3CC2)s1` | 4.396% | 2.569% |
| 13 | `CNC(=O)[C@@H](c1ccccc1)N1CCC[C@H]1C(=O)NCc1cccnc1` | 0.9901% | 2.14% |
| 14 | `N#Cc1cccc(CNC(=O)Nc2cccnc2N2CCCC2)c1` | 8.43% | -0.9104% |
| 15 | `Cc1nccn1[C@@H]1CC[C@@H](NC(=O)Cn2c(C)nc3ccccc32)[C@H]1O` | 2% | 0.439% |
| 16 | `O=C(NCCO)NCC(c1ccccc1)N1CCc2sccc2C1` (stereo not given) | -3.59% | 2.711% |
| 17 | `N#Cc1ccc(NC2CCN(c3ncccn3)CC2)cc1C(F)(F)F` | 7.143% | 4.084% |
| 18 | `CN1CCN(c2ccc(NCc3ccc(OC(F)(F)F)cc3)cn2)CC1` | 7.738% | 8.86% |
| 19 | `Cc1ncc(CN(C)c2nc3c(cnn3C(C)(C)C)c(=O)[nH]2)s1` | 7.563% | 0.04658% |
| 20 | `COc1ccccc1CN1C(=O)O[C@@H]2CN(Cc3cccc(C)n3)C[C@@H]21` | 7.955% | -0.6113% |
| 21 | `c1cnn(CC2CCCN2c2ncnc3c2CCC3)c1` (stereo not given) | 0% | 4.019% |
| 22 | `O=C1CCC(c2ccc(Cl)cc2)=NN1CN1CCCCCC1` | 0% | 3.635% |
| 23 | `CC(=O)N1CCN(C2CCc3ccccc32)CC1` (stereo not given) | -6.897% | -2.205% |
| 24 | `Cc1cn2nc(N3CCCC3C(=O)N3CCOCC3)sc2n1` (stereo not given) | -2.941% | 3.004% |
| 25 | `CNc1cc(C)nc(N2CCC3(CC2)[C@H](O)C[C@@H]3O)n1` | 4.762% | 5.794% |
| 26 | `COc1cccc(C(=O)Nc2ccc(OC3CCN(C)CC3)cc2)c1` | -5.528% | 1.557% |
| 27 | `c1ccc(CN2CCC3(CC2)CCN(Cc2cccnc2)C3)nc1` | 1.961% | 3.157% |
| 28 | `CCn1cc(C(=O)N2CCCC(c3noc(C)n3)C2)cn1` (stereo not given) | 3.134% | -0.7637% |
| 29 | `Cc1nc2c(c(NCc3cnc4c(c3)CCC4)n1)CNC2` | 14.14% | 6.195% |
| 30 | `CNC(=O)[C@H]1C[C@@H]2CCN(c3nnc(C)s3)C[C@@H]2O1` | 11.76% | 3.157% |
| 31 | `COc1ncc(-c2cc(NCCN(C)C)nc3[nH]ccc23)c(OC)n1` | 6.897% | -3.65% |
| 32 | `Cc1nc(C)c(C(=O)N2CCc3ccc(F)cc3C2C)o1` (stereo not given) | -20.62% | 5.906% |
| 33 | `Cn1cc(N2CCC(NC(=O)c3ccccc3F)C2=O)cn1` (stereo not given) | -2.326% | -0.1891% |
| 34 | `Cc1c(C)n(CC(O)CN2CCC(C)CC2)c2c(Cl)cccc12` (stereo not given) | 10.24% | 5.067% |
| 35 | `CCCC(=O)N(CCCN1CCOCC1)c1nc2c(F)cccc2s1` | 6.186% | 5.761% |
| 36 | `O=S(=O)(c1ccc(-c2cnco2)cc1)N1CCCC2(CCNCC2)CC1` | 27.4% | -4.542% |
| 37 | `Cc1cc(CC2COc3ccccc3C2)cnc1N` (stereo not given) | 7.821% | 9.699% |
| 38 | `COCCNC(=O)c1cc(S(=O)(=O)N2CCCC2)cs1` | 3.061% | -3.673% |
| 39 | `COCC1CN(Cc2cc(C)on2)Cc2cn(CC3CC3)nc21` (stereo not given) | 5.473% | 0.7664% |
| 40 | `COCC1c2c(cnn2C)CCN1Cc1ccoc1` (stereo not given) | -1.604% | 8.538% |
| 41 | `Cc1n[nH]c(C)c1C1CCCN1C(=O)NC(C)(C)C` (stereo not given) | 0% | 3.118% |
| 42 | `CN(C)Cc1nc(C(C)(C)NC(=O)c2cccc3ccccc23)no1` | 1.786% | 0.3273% |
| 43 | `Cc1ccn(-c2ccnc(N3CCSCC3)n2)n1` | -2.484% | 2.998% |
| 44 | `O=C(c1cccc(NCc2cccc(F)c2)c1)N1CCC(O)CC1` | -1.657% | -1.605% |
| 45 | `Cn1c(Cn2cccn2)nnc1C1CCCN(c2ccncc2)C1` (stereo not given) | 2.5% | 1.827% |
| 46 | `Cc1ccccc1OCCN(C)C(=O)NC(C)c1nncn1C` (stereo not given) | 7.345% | 3.602% |
| 47 | `COc1cc(Br)cc(CNC2CCCNC2=O)c1O` (stereo not given) | 1.02% | 4.478% |
| 48 | `O=C(c1cccnc1)N1CCc2onc(CN3CCCC3)c2C1` | 3.743% | 6.358% |
| 49 | `c1cnn(CC2CN(Cc3nnc(C4CC4)o3)CCO2)c1` (stereo not given) | 3.468% | 1.384% |
| 50 | `Cc1nc2ccc(S(=O)(=O)Nc3c(C)nn(CC(=O)O)c3C)cc2s1` | 12.87% | 1.569% |
| 51 | `CCCNC(=O)CSc1nnc2[nH]c(=O)c3c(n12)CCCC3` | -1.031% | -5.489% |
| 52 | `CC1(Cc2ccc(F)cc2)Cc2cc(C(=O)NCCO)ccc2O1` (stereo not given) | 5.747% | 0.3132% |
| 53 | `c1cnnc(N2CCCC2CNc2cnc3ccccc3n2)c1` (stereo not given) | 7.324% | 0.5449% |
| 54 | `CC(C)c1nnc2n1CCN(CC(=O)N1CCc3ccccc3C1)C2` | 1.141% | 1.346% |
| 55 | `N#Cc1cccc(CN2CCO[C@@H]3CNC[C@@H]32)c1` | 4.813% | 0.9442% |
| 56 | `CC[C@H](C)[C@H](N)C(=O)N1CC(=O)c2sc(NCc3ccccc3)nc2C1` | 14.69% | 3.631% |
| 57 | `O=C(Nc1ccccc1OCc1ccccn1)NC1CCOCC1` | 5.732% | 3.151% |
| 58 | `Cc1ccc(CCNC(=O)CC2COCCN2S(=O)(=O)N(C)C)s1` (stereo not given) | -1.288% | 3.089% |
| 59 | `O=C(NC1CC1)c1nc2c(o1)CN(c1ncccn1)C2` | 5.063% | 2.905% |
| 60 | `O=C1CC2(CCN(Cc3cccnc3)C2)CN1c1cncnc1` (stereo not given) | 6.122% | -2.249% |
| 61 | `O=C(Cn1cccn1)N1CCC(Oc2ccc(C(F)(F)F)cn2)CC1` | 8% | 4.518% |
| 62 | `CC(C)OCCN1CCN(C(=O)c2cccc(-n3cccn3)n2)CC1` | 5.195% | 1.603% |
| 63 | `O=C(C1CCN(c2cccnn2)C1)N1CCOCC1` (stereo not given) | 7.463% | -0.3149% |
| 64 | `CC(C)CCNC(=O)Cc1cnc(-n2cccc2)s1` | 6.211% | 2.384% |
| 65 | `CC(C)N1CC(c2ncc(-c3ccc4c(c3)OCCO4)[nH]2)CC1=O` (stereo not given) | 1.031% | -1.272% |
| 66 | `COc1cc(-n2cccc2)c(Cl)cc1C(=O)NS(C)(=O)=O` | 0.5525% | 3.28% |
| 67 | `Cc1cn2cc(C(=O)NC3CCCN(c4ncccn4)C3)ccc2n1` (stereo not given) | 5.102% | 5.718% |
| 68 | `CCc1nnc2n1CCN(C(=O)c1ccc(-c3ccco3)nc1C)C2` | 0% | 7.336% |
| 69 | `Cc1cc(C(=O)N2CCC(n3cc(CO)nn3)CC2)ccc1F` | -2.762% | -0.8655% |
| 70 | `CC(=O)c1cccc(NC(=O)NCCOCC2CC2)c1` | 8.621% | 7.11% |
| 71 | `COCc1cc(NCCCSc2nnc(C)s2)ncn1` | 1.739% | 0.8614% |
| 72 | `O=C(c1ccsc1)N1CCC2(CC1)COCCN(Cc1ccncc1)C2` | 6.122% | -0.8007% |
| 73 | `C/C=C(\C)CN1C[C@H](NC(=O)CN2CCCC2=O)[C@@H](c2ccc(C)o2)C1` | 1.98% | -4.823% |
| 74 | `CC(Cn1cccn1)NC(=O)Nc1ccc(F)cc1` (stereo not given) | 2.439% | 6.578% |
| 75 | `N#CC(NC(=O)CC(F)(F)F)c1ccsc1` (stereo not given) | 1.327% | -1.074% |
| 76 | `CN(CC(=O)NC1(C)CCS(=O)(=O)C1)Cc1ccc(F)c(F)c1` (stereo not given) | 0% | 0.275% |
| 77 | `Cc1cc(C)n(CCN(C)c2ccc(-c3nc(C4CC4)no3)cn2)n1` | 1.19% | -5.376% |
| 78 | `Cc1csc(C(C)(C)NCC(=O)N(C)Cc2ccc(C)o2)n1` | 9.045% | 3.816% |
| 79 | `Cc1ccc2c(n1)N(CCN(C)C)CCN(Cc1c(C)noc1C)C2` | 6.952% | 2.14% |
| 80 | `Cn1cc(CN2CCO[C@@H]3CN(Cc4ccoc4)C[C@@H]3C2)cn1` | 7.527% | 0.7281% |
| 81 | `O=S(=O)(NCCCn1cncn1)c1ccc2c(c1)CCCC2` | 6.087% | 3.407% |

Repeated from the top, 5 entries:

SMILES,A,B
COc1ccc(C(=O)N2C[C@@H](CN3CCCC3)[C@@H](CO)C2)c(C)c1,-2.041%,8.804%
Cc1noc(C)c1CSc1nc(=O)ccn1C(C)C,3.704%,-0.4651%
O=S(=O)(c1cccs1)N1CCCC2(COCCN(c3cccnc3)C2)C1 (stereo not given),14.71%,2.575%
CC(C)c1ccc(-n2ncc(C(=O)NCC3COC(C)(C)O3)c2N)cc1 (stereo not given),9.091%,1.549%
CC(C)n1nc2c(cc1=O)CN(c1ncnc3sccc13)CC2,11.67%,12.09%